Laboratory results: US7145044B2, “Method of producing reduced coenzyme Q10 using solvent with high oxidation-protective effect” (Kaneka Corporation, priority 2001, dated 2006)
At least one structure is not confirmed: it was looked up by name or label, or the drawing left a doubt.

What was measured:
[1] = Oxidation stability of reduced coenzyme Q10 in various solvents in the air at 35° C. for 24 hours; format: physicochemical; details: Comparative Example 2; 1 g in 100 g Methyl isobutyl ketone, 24 hours stirring at 35° C. in the air
[2] = Oxidation stability of reduced coenzyme Q10 in various solvents (or as crystal) in the air at 25° C. for 24 hours; format: physicochemical; details: Comparative Example 1

## COc1c(O)c(C)c(C/C=C(\C)CC/C=C(\C)CC/C=C(\C)CC/C=C(\C)CC/C=C(\C)CC/C=C(\C)CC/C=C(\C)CC/C=C(\C)CC/C=C(\C)CCC=C(C)C)c(O)c1OC [reduced coenzyme Q10]
[1]
  R: Reduced coenzyme Q10/oxidized coenzyme Q10 weight ratio: 46.1/53.9
[2]; 1 g in 20 g Dimethylformamide, 24 hours stirring in the air at 25° C.
  R: Reduced coenzyme Q10/oxidized coenzyme Q10 weight ratio: 31.0/69.0
[2]; 1 g in 20 g Methyl isobutyl ketone, 24 hours stirring in the air at 25° C.
  R: Reduced coenzyme Q10/oxidized coenzyme Q10 weight ratio: 69.2/30.8
[2]; 1 g in 20 g N-Methylpyrrolidone, 24 hours stirring in the air at 25° C.
  R: Reduced coenzyme Q10/oxidized coenzyme Q10 weight ratio: 67.3/32.7
[2]; Crystal (no solvent), 1 g stored in the air at 25° C. for 24 hours
  R: Reduced coenzyme Q10/oxidized coenzyme Q10 weight ratio: 95.9/4.1
